Assay results as given in publication PMC9816108.
Results are given in words; binding and its absence hold for the method and conditions named. Binding seen in cells or lysates may run through a third protein. These calls come from enrichment with a bait or labelling near it, and not all partners need be listed. For some assays here: A no says only that the protein was not detected with the bait.

Sequences of proteins named here, by UniProt entry; tags and fusion partners are left off. Residues count along the entry.
UniProt P62812, residues 28-455: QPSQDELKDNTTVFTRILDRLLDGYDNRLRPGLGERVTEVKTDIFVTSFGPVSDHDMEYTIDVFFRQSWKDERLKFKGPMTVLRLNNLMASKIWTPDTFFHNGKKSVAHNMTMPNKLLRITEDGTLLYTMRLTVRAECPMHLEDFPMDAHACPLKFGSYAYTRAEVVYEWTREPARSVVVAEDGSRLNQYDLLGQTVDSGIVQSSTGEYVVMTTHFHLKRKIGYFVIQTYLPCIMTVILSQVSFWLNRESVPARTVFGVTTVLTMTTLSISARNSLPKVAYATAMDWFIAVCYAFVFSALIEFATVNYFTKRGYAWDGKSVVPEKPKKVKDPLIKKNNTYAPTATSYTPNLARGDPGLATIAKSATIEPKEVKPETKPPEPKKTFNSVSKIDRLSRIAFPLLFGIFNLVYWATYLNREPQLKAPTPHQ
UniProt P26048, residues 29-451: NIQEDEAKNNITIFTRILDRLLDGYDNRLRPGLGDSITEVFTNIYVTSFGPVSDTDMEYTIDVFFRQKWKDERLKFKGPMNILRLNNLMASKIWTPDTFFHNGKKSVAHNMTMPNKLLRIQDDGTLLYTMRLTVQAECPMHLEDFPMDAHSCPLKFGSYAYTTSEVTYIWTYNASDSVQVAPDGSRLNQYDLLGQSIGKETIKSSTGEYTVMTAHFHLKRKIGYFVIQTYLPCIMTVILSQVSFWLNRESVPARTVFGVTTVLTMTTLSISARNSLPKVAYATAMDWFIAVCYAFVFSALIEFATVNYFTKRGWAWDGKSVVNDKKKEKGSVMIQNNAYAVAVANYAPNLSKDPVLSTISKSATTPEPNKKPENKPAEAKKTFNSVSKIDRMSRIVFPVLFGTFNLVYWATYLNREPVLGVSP
UniProt Q6R891: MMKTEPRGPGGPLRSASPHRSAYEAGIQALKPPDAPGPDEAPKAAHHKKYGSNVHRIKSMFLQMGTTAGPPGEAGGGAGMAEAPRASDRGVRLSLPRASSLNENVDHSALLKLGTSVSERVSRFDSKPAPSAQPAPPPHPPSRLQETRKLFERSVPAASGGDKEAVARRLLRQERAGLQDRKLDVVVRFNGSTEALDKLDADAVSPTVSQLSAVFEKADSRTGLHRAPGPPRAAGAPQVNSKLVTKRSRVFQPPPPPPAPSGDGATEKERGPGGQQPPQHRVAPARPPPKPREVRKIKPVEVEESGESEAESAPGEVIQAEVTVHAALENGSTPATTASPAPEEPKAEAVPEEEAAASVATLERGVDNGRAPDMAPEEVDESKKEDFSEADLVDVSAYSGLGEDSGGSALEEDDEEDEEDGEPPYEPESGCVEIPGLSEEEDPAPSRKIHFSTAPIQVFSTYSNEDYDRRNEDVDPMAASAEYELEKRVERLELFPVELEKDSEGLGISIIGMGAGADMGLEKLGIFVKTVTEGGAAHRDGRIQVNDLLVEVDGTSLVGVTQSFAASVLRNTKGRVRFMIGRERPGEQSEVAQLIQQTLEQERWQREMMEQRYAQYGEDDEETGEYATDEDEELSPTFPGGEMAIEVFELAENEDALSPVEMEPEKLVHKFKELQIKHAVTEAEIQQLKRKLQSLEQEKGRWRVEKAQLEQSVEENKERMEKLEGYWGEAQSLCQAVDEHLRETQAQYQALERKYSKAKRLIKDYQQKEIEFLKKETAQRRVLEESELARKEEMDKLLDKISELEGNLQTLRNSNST
UniProt Q7TPR4: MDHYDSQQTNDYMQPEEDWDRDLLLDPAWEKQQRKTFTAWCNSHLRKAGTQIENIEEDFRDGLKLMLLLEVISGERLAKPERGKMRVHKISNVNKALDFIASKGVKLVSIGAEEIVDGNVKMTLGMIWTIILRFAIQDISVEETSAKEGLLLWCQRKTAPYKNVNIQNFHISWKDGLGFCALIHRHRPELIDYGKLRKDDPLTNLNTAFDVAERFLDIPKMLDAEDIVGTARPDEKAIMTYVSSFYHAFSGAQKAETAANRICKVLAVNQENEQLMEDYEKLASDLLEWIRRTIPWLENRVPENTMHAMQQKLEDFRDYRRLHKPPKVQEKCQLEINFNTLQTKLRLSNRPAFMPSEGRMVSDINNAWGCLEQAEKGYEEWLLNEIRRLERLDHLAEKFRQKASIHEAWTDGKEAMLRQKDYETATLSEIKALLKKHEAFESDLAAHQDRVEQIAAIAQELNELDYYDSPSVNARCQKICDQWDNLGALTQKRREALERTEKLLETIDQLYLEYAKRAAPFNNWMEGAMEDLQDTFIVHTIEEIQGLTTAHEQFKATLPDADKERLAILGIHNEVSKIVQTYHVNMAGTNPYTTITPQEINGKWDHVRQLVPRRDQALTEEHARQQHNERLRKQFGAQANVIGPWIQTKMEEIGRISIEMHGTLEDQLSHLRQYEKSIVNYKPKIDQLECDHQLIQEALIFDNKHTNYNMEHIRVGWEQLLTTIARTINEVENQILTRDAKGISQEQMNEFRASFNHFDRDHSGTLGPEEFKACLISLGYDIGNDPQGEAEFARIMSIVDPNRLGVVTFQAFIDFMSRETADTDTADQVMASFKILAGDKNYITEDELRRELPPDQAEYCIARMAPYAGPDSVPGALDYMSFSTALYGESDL
UniProt Q7TSJ2: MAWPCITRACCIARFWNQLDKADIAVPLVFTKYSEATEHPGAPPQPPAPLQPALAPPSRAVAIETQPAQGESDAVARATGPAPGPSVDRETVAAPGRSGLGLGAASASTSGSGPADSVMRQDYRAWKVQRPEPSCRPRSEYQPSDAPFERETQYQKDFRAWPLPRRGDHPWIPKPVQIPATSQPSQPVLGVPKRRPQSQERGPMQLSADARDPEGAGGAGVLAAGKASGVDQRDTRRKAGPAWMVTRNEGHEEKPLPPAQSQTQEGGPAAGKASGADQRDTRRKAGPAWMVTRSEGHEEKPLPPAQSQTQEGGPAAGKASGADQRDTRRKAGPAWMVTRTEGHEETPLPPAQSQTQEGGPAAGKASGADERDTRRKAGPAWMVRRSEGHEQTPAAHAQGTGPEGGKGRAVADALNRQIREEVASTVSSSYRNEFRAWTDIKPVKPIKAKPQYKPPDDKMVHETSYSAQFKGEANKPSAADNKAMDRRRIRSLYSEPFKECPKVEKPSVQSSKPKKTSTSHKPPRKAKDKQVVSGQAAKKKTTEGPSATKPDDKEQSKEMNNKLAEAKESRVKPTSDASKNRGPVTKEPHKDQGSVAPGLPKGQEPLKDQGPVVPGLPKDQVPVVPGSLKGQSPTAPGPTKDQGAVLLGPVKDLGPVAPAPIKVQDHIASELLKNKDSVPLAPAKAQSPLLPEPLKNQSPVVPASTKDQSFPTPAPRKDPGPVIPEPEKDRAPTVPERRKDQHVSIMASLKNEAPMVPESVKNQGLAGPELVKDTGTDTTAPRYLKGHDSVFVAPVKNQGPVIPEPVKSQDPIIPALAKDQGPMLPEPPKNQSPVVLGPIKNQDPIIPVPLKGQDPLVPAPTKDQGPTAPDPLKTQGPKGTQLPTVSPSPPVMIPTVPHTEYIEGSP
UniProt Q62261: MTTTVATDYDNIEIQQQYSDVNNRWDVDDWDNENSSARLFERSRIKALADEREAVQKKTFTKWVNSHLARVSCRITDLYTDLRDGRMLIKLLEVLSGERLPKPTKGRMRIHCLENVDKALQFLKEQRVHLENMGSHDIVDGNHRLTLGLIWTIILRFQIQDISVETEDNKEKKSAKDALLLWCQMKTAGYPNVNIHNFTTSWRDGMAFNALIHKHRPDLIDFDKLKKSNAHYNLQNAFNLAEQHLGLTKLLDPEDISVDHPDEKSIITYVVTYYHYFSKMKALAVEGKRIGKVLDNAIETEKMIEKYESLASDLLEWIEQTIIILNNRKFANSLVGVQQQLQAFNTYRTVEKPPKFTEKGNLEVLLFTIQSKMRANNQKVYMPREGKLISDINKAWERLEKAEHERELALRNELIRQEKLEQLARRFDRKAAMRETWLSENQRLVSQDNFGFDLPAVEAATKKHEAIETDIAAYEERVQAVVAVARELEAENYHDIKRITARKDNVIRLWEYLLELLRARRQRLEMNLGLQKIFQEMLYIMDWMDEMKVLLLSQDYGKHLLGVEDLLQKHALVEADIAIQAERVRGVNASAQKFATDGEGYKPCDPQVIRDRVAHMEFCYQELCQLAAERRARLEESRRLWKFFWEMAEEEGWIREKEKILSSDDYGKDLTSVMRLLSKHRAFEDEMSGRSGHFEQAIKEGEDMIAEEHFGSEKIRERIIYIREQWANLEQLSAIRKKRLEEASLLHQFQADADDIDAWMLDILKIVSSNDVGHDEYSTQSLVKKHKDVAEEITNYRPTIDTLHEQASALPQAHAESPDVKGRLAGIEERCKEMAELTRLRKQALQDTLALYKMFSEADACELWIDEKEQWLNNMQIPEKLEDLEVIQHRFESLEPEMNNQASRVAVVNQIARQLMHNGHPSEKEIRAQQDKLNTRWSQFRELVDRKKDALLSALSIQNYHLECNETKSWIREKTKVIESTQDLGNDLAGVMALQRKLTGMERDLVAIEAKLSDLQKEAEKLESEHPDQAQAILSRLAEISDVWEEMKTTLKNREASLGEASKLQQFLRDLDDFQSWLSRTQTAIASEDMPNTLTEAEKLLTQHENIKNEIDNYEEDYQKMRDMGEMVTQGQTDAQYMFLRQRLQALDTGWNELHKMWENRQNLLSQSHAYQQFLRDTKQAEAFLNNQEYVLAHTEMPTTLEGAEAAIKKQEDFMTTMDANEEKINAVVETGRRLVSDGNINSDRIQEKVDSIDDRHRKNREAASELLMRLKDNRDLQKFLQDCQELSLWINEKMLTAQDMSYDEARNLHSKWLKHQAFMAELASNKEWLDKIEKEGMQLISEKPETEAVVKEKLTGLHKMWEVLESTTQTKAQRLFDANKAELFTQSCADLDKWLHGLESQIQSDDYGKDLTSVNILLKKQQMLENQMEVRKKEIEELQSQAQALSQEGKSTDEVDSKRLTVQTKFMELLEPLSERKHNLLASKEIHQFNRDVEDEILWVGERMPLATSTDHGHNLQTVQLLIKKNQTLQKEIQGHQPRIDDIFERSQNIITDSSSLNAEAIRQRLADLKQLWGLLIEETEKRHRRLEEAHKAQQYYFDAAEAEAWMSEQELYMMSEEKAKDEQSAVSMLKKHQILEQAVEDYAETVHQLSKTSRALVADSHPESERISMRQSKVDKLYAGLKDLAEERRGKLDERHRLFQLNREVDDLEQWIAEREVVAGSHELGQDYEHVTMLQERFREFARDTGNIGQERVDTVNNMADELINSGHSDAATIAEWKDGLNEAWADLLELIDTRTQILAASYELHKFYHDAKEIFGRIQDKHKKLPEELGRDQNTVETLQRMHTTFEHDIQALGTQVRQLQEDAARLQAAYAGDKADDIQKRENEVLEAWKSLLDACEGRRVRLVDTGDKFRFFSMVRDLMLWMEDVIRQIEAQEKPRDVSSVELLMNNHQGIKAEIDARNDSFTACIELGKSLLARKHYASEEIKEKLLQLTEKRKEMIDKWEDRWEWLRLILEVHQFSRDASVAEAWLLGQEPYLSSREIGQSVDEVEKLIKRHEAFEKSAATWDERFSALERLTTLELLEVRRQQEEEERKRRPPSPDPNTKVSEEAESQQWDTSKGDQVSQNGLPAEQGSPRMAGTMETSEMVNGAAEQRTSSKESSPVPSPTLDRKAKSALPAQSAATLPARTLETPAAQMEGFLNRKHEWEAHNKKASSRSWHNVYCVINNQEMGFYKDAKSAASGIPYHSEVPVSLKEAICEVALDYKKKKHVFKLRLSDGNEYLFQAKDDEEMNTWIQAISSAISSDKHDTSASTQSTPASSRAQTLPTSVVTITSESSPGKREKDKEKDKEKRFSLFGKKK
UniProt P16305, residues 20-453: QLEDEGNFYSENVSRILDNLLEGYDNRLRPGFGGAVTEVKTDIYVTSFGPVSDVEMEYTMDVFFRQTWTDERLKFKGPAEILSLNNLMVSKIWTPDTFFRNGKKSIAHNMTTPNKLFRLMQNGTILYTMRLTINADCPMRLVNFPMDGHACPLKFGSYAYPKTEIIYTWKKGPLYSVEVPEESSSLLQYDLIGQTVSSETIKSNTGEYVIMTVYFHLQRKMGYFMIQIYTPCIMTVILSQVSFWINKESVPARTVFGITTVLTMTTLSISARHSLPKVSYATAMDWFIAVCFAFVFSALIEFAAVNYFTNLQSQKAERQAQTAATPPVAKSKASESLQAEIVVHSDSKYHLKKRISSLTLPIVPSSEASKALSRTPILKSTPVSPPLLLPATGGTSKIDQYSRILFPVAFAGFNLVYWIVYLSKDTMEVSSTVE

Experiments:
[1] = molecular target: GABAA receptor α1 subunit (mouse (endogenous in forebrain)) (UniProt P62812); assay: affinity purification with mass spectrometry; α1 and α2 (pHα2) receptors immunopurified from mouse forebrain plasma membrane fractions, BN-PAGE, 720 kDa species excised, label-free LC-MS/MS; only proteins significantly enriched over control (non-immune IgG, or anti-9E10 in wild type tissue)
[2] = molecular target: GABAA receptor α2 subunit modified with pHluorin and 9E10 (myc) epitope on its N-terminus (mouse (knock-in, forebrain)) (UniProt P26048); assay: as above
[3] = molecular target: GABAA receptor α2 subunit modified with pHluorin and 9E10 (myc) epitope on its N-terminus (mouse (knock-in, forebrain)) (UniProt P26048); assay: affinity purification with mass spectrometry; mouse forebrain plasma membranes solubilised in 0.5% Triton; α1 receptors with immobilised α1 monoclonal antibody from wild type tissue, α2 receptors with anti-9E10 (myc) beads from pHα2 tissue; soft elution, BN-PAGE, 250 kDa band excised, LC-MS/MS against control purifications

Substance	binding [1]	binding [2]	binding [3]
α2 spectrin (from UniProt P16546 1-2472)	binds	binds	–
Myo5a (from UniProt Q99104 1-1853)	binds	binds	–
Myh10 (from UniProt Q61879 1-1976)	binds	binds	–
Syngap1 (from UniProt F6SEU4 1-1340)	binds	–	–

The next lines start with the values.

binding [1]	binding [2]	binding [3]	Substance
binds	–	–	Ppp1r9b (from UniProt Q6R891 1-817)
binds	–	–	Actn1 (from UniProt Q7TPR4 1-892)
binds	–	–	Shank3 (from UniProt Q4ACU6 1-1730)
binds	–	–	Map6 (from UniProt Q7TSJ2 1-906)
binds	binds	–	β2 spectrin (from UniProt Q62261 1-2363)
–	–	no binding	GABAA receptor α6 subunit (from UniProt P16305 20-453)
